# No constants are given. Whether binding was seen depends on the method and setting. Binding seen in cells or lysates may run through a third protein. Here binding means that the protein was enriched with, or labelled near, the bait; the list need not be complete.
# Protein sequences, listed by entry. Tags and fused reporters are not part of them.
# UniProt Q8CJG0: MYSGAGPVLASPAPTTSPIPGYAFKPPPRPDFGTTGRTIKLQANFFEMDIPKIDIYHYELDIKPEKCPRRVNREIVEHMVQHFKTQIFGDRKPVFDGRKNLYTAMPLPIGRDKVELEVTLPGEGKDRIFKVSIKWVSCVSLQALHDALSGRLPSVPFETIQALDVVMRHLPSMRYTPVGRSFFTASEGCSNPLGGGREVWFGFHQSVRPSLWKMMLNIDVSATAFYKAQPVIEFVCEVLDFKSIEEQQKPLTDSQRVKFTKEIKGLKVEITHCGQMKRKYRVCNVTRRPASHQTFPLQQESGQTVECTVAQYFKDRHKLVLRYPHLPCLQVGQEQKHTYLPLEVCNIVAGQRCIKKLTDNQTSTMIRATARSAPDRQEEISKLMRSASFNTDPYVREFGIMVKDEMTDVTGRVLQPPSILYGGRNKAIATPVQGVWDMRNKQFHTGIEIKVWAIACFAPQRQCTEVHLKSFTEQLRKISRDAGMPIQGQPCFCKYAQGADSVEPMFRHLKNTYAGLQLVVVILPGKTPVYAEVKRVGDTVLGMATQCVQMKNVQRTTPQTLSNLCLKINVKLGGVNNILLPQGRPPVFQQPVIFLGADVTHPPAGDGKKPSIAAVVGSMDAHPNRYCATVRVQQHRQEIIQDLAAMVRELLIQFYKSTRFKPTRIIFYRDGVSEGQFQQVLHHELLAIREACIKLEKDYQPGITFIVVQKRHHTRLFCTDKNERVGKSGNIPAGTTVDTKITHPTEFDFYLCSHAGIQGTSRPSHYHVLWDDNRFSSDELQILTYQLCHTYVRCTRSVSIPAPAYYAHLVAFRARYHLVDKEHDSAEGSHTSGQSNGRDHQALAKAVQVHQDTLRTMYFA
# B1: SRSF7 (protein, UniProt Q8BL97 1-267)
# chain: MRSSARGRPLQAATAFFLSLFFFLRRFERGFWLWGGDSETKVYVGNLGTGAGKGELERAFSYYGPLRTVWIARNPPGFAFVEFEDPRDAEDAVRGLDGKVICGSRVRVELSTGMPRRSRFDRPPARRPFDPNDRCYECGEKGHYAYDCHRYSRRRRSRSRSRSHSRSRGRRYSRSRSRSRGRRSRSASPRRSRSVSLRRSRSASLRRSRSGSIIGSRYFQSRSRSRSRSRSISRPRSSRSKSRSPSPKRSRSPSGSPHRSASPERMD
# B2: CPSF2 (protein, UniProt O35218 1-782)
# chain: MTSIIKLTTLSGVQEESALCYLLQVDEFRFLLDCGWDEHFSVDIIDSLRKHVHQIDAVLLSHPDPLHLGALPFAVGKLGLNCAIYATIPVYKMGQMFMYDLYQSRHNTEDFTLFTLDDVDAAFDKIQQLKFSQIVNLKGKGHGLSITPLPAGHMIGGTIWKIVKDGEEEIVYAVDFNHKREIHLNGCSLEMLSRPSLLITDSFNATYVQPRRKQRDEQLLTNVLETLRGDGNVLIAVDTAGRVLELAQLLDQIWRTKDAGLGVYSLALLNNVSYNVVEFSKSQVEWMSDKLMRCFEDKRNNPFQFRHLSLCHGLSDLARVPSPKVVLASQPDLECGFSRDLFIQWCQDPKNSIILTYRTTPGTLARFLIDNPTEKVTEIELRKRVKLEGKELEEYVEKEKLKKEAAKKLEQSKEADIDSSDESDVEEDVDQPSAHKTKHDLMMKGEGSRKGSFFKQAKKSYPMFPAPEERIKWDEYGEIIKPEDFLVPELQATEEEKSKLESGLTNGEEPMDQDLSDVPTKCVSATESIEIKARVTYIDYEGRSDGDSIKKIINQMKPRQLIIVHGPPEASQDLAECCRAFGGKDIKVYMPKLHETVDATSETHIYQVRLKDSLVSSLQFCKAKDAELAWIDGVLDMRVSKVDTGVILEEGELKDDGEDSEMQVDAPSDSSAMAQQKAMKSLFGEDEKELGEETEIIPTLEPLPPHEVPGHQSVFMNEPRLSDFKQVLLREGIQAEFVGGVLVCNNQVAVRRTETGRIGLEGCLCQDFYRIRDLLYEQYAIV
# B3: CSTF1 (protein, UniProt Q99LC2 1-431)
# chain: MYRTKVGLKDRQQLYKLIISQLLYDGYISIANGLINEIKPQSVCAPSEQLLHLIKLGMENDDTAVQYAIGRSDTVAPGTGIDLEFDADVQTMSPEASEYETCYVTSHKGPCRVATYSRDGQLIATGSADASIKILDTERMLAKSAMPIEVMMNETAQQNMENHPVIRTLYDHVDEVTCLAFHPTEQILASGSRDYTLKLFDYSKPSAKRAFKYIQEAEMLRSISFHPSGDFILVGTQHPTLRLYDINTFQCFVSCNPQDQHTDAICSVNYNPSANMYVTGSKDGCIKLWDGVSNRCITTFEKAHDGAEVCSAIFSKNSKYILSSGKDSVAKLWEISTGRTLVRYTGAGLSGRQVHRTQAVFNHTEDYILLPDERTISLCCWDSRTAERRNLLSLGHNNIVRCIVHSPTNPGFMTCSDDFRARFWYRRSTTD
# B4: CPSF3 (protein, UniProt Q9QXK7 1-684)
# chain: MSAIPAEESDQLLIRPLGAGQEVGRSCIILEFKGRKIMLDCGIHPGLEGMDALPYIDLIDPAEIDLLLISHFHLDHCGALPWFLQKTSFKGRTFMTHATKAIYRWLLSDYVKVSNISADDMLYTETDLEESMDKIETINFHEVKEVAGIKFWCYHAGHVLGAAMFMIEIAGVKLLYTGDFSRQEDRHLMAAEIPNIKPDILIIESTYGTHIHEKREEREARFCNTVHDIVNRGGRGLIPVFALGRAQELLLILDEYWQNHPELHDIPIYYASSLAKKCMAVYQTYVNAMNDKIRKQININNPFVFKHISNLKSMDHFDDIGPSVVMASPGMIQNGLSRELFESWCTDKRNGVIIAGYCVEGTLAKHIMSEPEEITTMSGQKLPLKMSVDYISFSAHTDYQQTSEFIRALKPPHVILVHGEQNEMARLKAALIREYEDNDEVHIEVHNPRNTEAVTLNFRGEKLAKVMGFLADKKPEQGQRVSGILVKRNFNYHILSPCDLSNYTDLAMSTVKQTQAIPYTGPFYLLYYQLQKLTGDVEELEIQEKPALKVFKSITVVQEPGMVVLEWLANPSNDMYADTVTTVILEVQSNPKIRKGAVQKVSKKLEMHVYSKRLEVMLQDIFGEDCVSVKDDSVLSVTVDGKTANINLETRAVECEEGSEDDESLREMVELAAQRLYEALTPVH
# B5: SRSF3 (protein, UniProt P84104 1-164)
# chain: MHRDSCPLDCKVYVGNLGNNGNKTELERAFGYYGPLRSVWVARNPPGFAFVEFEDPRDAADAVRELDGRTLCGCRVRVELSNGEKRSRNRGPPPSWGRRPRDDYRRRSPPPRRRSPRRRSFSRSRSRSLSRDRRRERSLSRERNHKPSRSFSRSRSRSRSNERK
# B6: PABPN1 (protein, UniProt Q8CCS6 1-302)
# chain: MAAAAAAAAAAGAAGGRGSGPGRRRHLVPGAGGEAGEGDPGGAGDYGNGLESEELEPGELLPEPEPEEEPPRPRAPPGAPGPGPGSGAPGSQEEEEEPGLVEADPGDGAIEDPELEAIKARVREMEEEAEKLKELQNEVEKQMNMSPPPGNAGPVIMSLEEKMEADARSIYVGNVDYGATAEELEAHFHGCGSVNRVTILCDKFSGHPKGFAYIEFSDKESVRTSLALDESLFRGRQIKVIPKRTNRPGISTTDRGFPRSRYRARTTNYNSSRSRFYSGFNSRPRGRIYRGRARATSWYSPY
# B7: CPSF7 (protein, UniProt Q8BTV2 1-471)
# chain: MSEGVDLIDIYADEEFNQDSEFNNTDQIDLYDDVLTAASQPSDDRSSSTEPPPPVRQEPAPKPNNKTPAILYTYSGLRSRRAAVYVGSFSWWTTDQQLIQVIRSIGVYDVVELKFAENRANGQSKGYAEVVVASENSVHKLLELLPGKVLNGEKVDVRPATRQNLSQFEAQARKRECVRVPRGGIPPRAHSRDSSDSADGRATPSENLVPSSARVDKPPSVLPYFNRPPSALPLMGLPPPPIPPPPPLSSSFGVPPPPPGIHYQHLMPPPPRLPPHLAVPPPGAIPPALHLNPAFFPPPNATVGPPPDTYMKASTPYNHHGSRDSGPPPSTVSEAEFEEIMKRNRAISSSAISKAVSGASAGDYSDAIETLLTAIAVIKQSRVANDERCRVLISSLKDCLHGIEAKSYSVGASGSSSRKRHRSRERSPSRSRESSRRHRDLLHNEDRHDDYFQERNREHERHRDRERDRHH
# Biological target: Argonaute 2 (mouse (endogenous in NSC-34)) (UniProt Q8CJG0)
# Assay: affinity purification with mass spectrometry
row,binding,Binder
1,binds,B1
2,binds,B2
3,binds,B3
4,binds,B4
5,binds,B5
6,binds,B6
7,binds,B7

# — publication doi:10.1101/2020.12.15.422806
